From patent publication US20080311076A1, “Morpholinylanilinoquinazoline Derivatives For Use As Antiviral Agents” (ARROW THERAPEUTICS LIMITED, priority 2004, published 2008)
At least one compound was matched to its structure with a doubt left.

Tested on: HCV replicon cells Huh 9B
Format: cell-based
Details: concentration reducing total cell area by 50% vs DMSO controls; methylene blue, absorbance 620 nm; 72 h incubation

FC(F)(F)Oc1ccc2ncnc(Nc3ccc(N4CCOCC4)cc3)c2c1 [Example 4, (6-trifluoromethoxy-quinazolinyl-4-yl)-(4-morpholin-4-yl-phenyl)-amine]
Replicon TD50: *** (>25 uM = ***)

O=S1(=O)CCN(Cc2ccc(-c3ccc4ncnc(Nc5ccc(N6CCOCC6)cc5)c4c3)o2)CC1 [Example 10, {6-[5-(1,1-Dioxo-1-λ-6-thiomorpholin-4-ylmethyl)-furan-2-yl]-quinazolin-4-yl}-(4-morpholin-4-yl-phenyl)-amine]
Replicon TD50: *** (>25 uM = ***)
